Measured values: patent publication US20240043493 (published 2024)

Test: general procedure: Fmoc solid-phase peptide synthesis; pre-loaded H-Asn(Trt)-HMBP-ChemMatrix or H-Gly-HMBP-ChemMatrix; DIC/6-Cl-HOBt or DIC/OxymaPure
Details: analytical rp-HPLC, several disulfide bridges, sequence written open
[1] = whole synthesis, scale of the general procedure 0.1 mmol

Substance | final HPLC purity [1] | final HPLC purity (lipidation step)
AFVNQHLCGSHLVEALYLVCGERGFFYTPRTEEGPRRGIVEQCCHSICSLEQLENYCN | >95% | 
FVK(C20)QHLCGSHLVEALYLVCGERGFFYTPRTEEGPRRGIVEQCCHSICSLEQLENYCN |  | >95%
FVKQHLCGSHLVEALYLVCGERGFFYTPRTEEGPRRGIVEQCCHSICSLEQLENYCN | >98% | 
FVNQHLCGSHLVEALYLVCGERGFFYTK(C20)PTEEGPRRGIVEQCCHSICSLEQLENYCN |  | >98%
FVNQHLCGSHLVEALYLVCGERGFFYTKPTEEGPRRGIVEQCCHSICSLEQLENYCN | >95% | 
FVNQHLCGSHLVEALYLVCGERGFFYTPRTEEGPK(C20)RGIVEQCCHSICSLEQLENYCN |  | >95%
FVNQHLCGSHLVEALYLVCGERGFFYTPRTEEGPKRGIVEQCCHSICSLEQLENYCN | >98% | 
FVNQHLCGSHLVEALYLVCGERGFFYTPRTEEGPRRGIVEQCCHSICSLKQLENYCN | >95% | 

End groups of sequences in plain letters are not given here.
